From patent US20230149554A1, “TARGETED DEGRADATION OF THE ONCOGENIC MICRORNA 17-92 CLUSTER BY STRUCTURE-TARGETING LIGANDS” (University of Florida Research Foundation, Incorporated, priority 2020, published 2023)
Entries after “also recorded” stand apart in the source; their conditions may differ.

Assay: Cellular localization by confocal microscopy
Format: cell-based, human
Details: 5 μM, 24 h, fluorescence microscopy

Compound: CCCN(CC(=O)N(CCC)CC(=O)N(CCC)CC(=O)N(CC(=O)NCCOCCOCCOCCOc1ccc(/C=C2\SC(Nc3ccccc3)=C(C(=O)OCC)C2=O)cc1O)Cc1cn(CCCNC(=O)CCCOc2c(C(C)(C)C)cc(-c3nc4cc(-c5ccc(N6CCN(C)CC6)cc5)ccc4[nH]3)cc2C(C)(C)C)nn1)C(=O)CN(Cc1cn(CCCNC(=O)CCCOc2c(C(C)(C)C)cc(-c3nc4cc(-c5ccc(N6CCN(C)CC6)cc5)ccc4[nH]3)cc2C(C)(C)C)nn1)C(C)=O [Compound 7]
- cellular localization: dispersed throughout the cell; also recorded: reside primarily in the cytoplasm
